Measurements taken from patent US9855260B2, “Quinolinone derivatives” (GlaxoSmithKline LLC, priority 2011, dated 2018).
Where a name gives a salt, the structure may show the parent alone. Some of these results come from one statement about several compounds together.

tested on: Human recombinant AMPK; assay: AMPK Enzymatic Assay (Z'Lyte FRET format); assay type: biochemical; conditions: AMPK activation, ATP 100 μM, means of at least 2 independent experiments

SMILES | average pEC200 (-Log(compound concentration leading to a 2-fold AMPK activity increase))
O=C(O)c1cnn(-c2c(O)c3cc(-c4ccc(N5CCCCC5)cc4)c(Cl)cc3[nH]c2=O)c1 [Example 195, 1-(7-Chloro-4-oxido-2-oxo-6-(4-(piperidin-1-yl)phenyl)-1,2-dihydroquinolin-3-yl)-1H-pyrazole-4-carboxylate, bis potassium salt] | greater than or equal to 5.0
Cc1cnn(-c2c(O)c3cc(-c4ccc(N5CCCC5)cc4)c(Cl)cc3[nH]c2=O)c1 [Example 139, 7-Chloro-4-hydroxy-3-(4-methyl-1H-pyrazol-1-yl)-6-(4-(pyrrolidin-1-yl)phenyl)quinolin-2(1H)-one] | greater than or equal to 5.0
COc1cccc(-c2c(O)c3cc(-c4ccc5c(ccn5C)c4)c(Cl)cc3[nH]c2=O)c1 [Example 8, 7-Chloro-4-hydroxy-6-(1-methyl-1H-indol-5-yl)-3-[3-(methyloxy)phenyl]quinolin-2(1H)-one] | greater than or equal to 5.0
Cc1cc(-c2c(O)c3cc(-c4ccc(-c5ccc(F)cc5)cc4)c(Cl)cc3[nH]c2=O)on1 [Example 14, 7-Chloro-6-(4′-fluoro-[1,1′-biphenyl]-4-yl)-4-hydroxy-3-(3-methylisoxazol-5-yl)quinolin-2(1H)-one] | greater than or equal to 5.0
CN(C)c1ccc(-c2cc3c(O)c(S(=O)(=O)c4ccccc4)c(=O)[nH]c3cc2Cl)cc1 [Example 147, 7-Chloro-6-(4-(dimethylamino)phenyl)-4-hydroxy-3-(phenylsulfonyl)quinolin-2(1H)-one] | greater than or equal to 5.0
CN(C)c1ccc(-c2cc3c(O)c(-n4ccnn4)c(=O)[nH]c3cc2Cl)cc1 [Example 88, 7-Chloro-6-(4-(dimethylamino)phenyl)-4-hydroxy-3-(1H-1,2,3-triazol-1-yl)quinolin-2(1H)-one] | greater than or equal to 5.0
COc1ccc(-c2cc3c(O)c(-c4ccccc4)c(=O)[nH]c3cc2Cl)cc1 [Example 48, 7-Chloro-4-hydroxy-6-(4-methoxyphenyl)-3-phenylquinolin-2(1H)-one] | greater than or equal to 5.0
Nc1nc(-c2ccc(-c3cc4c(O)c(-c5cccnc5)c(=O)[nH]c4cc3Cl)cc2)cs1 [Example 186, 6-(4-(2-Amino-1,3-thiazol-4-yl)phenyl)-7-chloro-4-hydroxy-3-(pyridin-3-yl)quinolin-2(1H)-one] | greater than or equal to 5.0
CCOC(=O)c1c(O)c2cc(-c3ccc(-c4cccc(OC)c4O)cc3)c(Cl)cc2[nH]c1=O [Example 28, Ethyl 7-chloro-4-hydroxy-6-[2′-hydroxy-3′-(methyloxy)-4-biphenylyl]-2-oxo-1,2-dihydro-3-quinoline carboxylate] | greater than or equal to 5.0
Cn1ccc2cc(-c3cc4c(O)c(-n5cccn5)c(=O)[nH]c4cc3Cl)ccc21 [Example 75, 7-Chloro-4-hydroxy-6-(1-methyl-1H-indol-5-yl)-3-(1H-pyrazol-1-yl)quinolin-2(1H)-one] | greater than or equal to 5.0
CNc1ccc(-c2cc3c(O)c(-c4cc(C)no4)c(=O)[nH]c3cc2Cl)cc1 [Example 138, 7-Chloro-4-hydroxy-6-(4-(methylamino)phenyl)-3-(3-methylisoxazol-5-yl)quinolin-2(1H)-one] | greater than or equal to 5.0
Cc1nonc1-c1c(O)c2cc(-c3ccc4c(ccn4C)c3)c(Cl)cc2[nH]c1=O [Example 105, 7-Chloro-4-hydroxy-3-(4-methyl-1,2,5-oxadiazol-3-yl)-6-(1-methyl-1H-indol-5-yl)quinolin-2(1H)-one] | greater than or equal to 5.0
